Drawing on paper doi:10.1101/2022.07.11.499617, this text covers binding for three molecules.

Results are given in words; binding and its absence hold for the method and conditions named. For some of these results: Binding seen in cells or lysates may run through a third protein. Some binding calls cover weakened binding; strength is not graded here. Sequences can lack the tags named with a protein.

The target of assay [1] is T1, YODA (YDA), two-hybrid fusion (Arabidopsis thaliana) (UniProt Q9CAD5).
T1 sequence: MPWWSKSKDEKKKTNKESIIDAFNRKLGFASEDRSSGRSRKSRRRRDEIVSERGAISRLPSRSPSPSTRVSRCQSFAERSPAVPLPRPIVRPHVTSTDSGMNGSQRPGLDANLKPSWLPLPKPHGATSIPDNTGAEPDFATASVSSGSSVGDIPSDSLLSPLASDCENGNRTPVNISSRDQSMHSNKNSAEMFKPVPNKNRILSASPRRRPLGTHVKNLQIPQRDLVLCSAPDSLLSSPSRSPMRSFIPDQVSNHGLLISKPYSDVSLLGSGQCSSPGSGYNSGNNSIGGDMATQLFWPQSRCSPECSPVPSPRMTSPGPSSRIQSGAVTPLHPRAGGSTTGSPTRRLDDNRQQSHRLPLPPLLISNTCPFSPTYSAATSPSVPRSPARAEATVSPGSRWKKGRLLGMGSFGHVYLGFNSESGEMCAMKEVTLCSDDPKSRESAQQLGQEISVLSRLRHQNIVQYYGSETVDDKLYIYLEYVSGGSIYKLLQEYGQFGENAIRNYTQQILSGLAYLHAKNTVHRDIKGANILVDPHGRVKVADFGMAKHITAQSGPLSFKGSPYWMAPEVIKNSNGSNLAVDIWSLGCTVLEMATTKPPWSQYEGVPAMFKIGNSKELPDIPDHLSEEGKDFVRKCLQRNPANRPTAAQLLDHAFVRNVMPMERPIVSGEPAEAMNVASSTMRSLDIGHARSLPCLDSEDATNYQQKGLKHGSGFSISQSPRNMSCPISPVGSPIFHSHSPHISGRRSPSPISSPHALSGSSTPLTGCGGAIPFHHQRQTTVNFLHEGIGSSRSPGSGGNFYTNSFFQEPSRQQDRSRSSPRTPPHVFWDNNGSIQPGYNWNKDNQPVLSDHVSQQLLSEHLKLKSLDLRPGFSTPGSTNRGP
Put plainly: two-hybrid.

For assay [2], the target named is BR-… KINASE1 (BSK1), two-hybrid fusion (Arabidopsis thaliana) (UniProt Q944A7). Put plainly: two-hybrid.
The target in assay [3] is BR-… KINASE2 (BSK2), two-hybrid fusion (Arabidopsis thaliana) (UniProt Q9LS26). Nature of the assay: two-hybrid.
Assay [4] has as its target T2, PUB30_(T155D)-MYC (phosphomimetic) (Arabidopsis thaliana) (UniProt Q058P4).
T2 sequence: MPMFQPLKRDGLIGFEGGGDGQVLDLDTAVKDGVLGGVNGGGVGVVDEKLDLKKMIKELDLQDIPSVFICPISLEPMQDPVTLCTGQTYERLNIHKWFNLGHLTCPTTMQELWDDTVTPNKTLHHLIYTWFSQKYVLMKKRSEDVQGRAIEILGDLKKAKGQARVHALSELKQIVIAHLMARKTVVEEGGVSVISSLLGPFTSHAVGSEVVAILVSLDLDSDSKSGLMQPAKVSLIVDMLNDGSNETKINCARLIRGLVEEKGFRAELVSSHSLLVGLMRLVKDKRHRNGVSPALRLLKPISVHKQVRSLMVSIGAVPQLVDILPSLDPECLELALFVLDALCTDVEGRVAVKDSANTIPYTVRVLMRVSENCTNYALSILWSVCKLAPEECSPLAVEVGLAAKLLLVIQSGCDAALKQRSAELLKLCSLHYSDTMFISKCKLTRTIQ
Nature of the assay: co-IP.

The target of assay [5] is T3, PUB31_(T151D)-MYC (phosphomimetic) (Arabidopsis thaliana) (UniProt Q9FHN9).
T3 sequence: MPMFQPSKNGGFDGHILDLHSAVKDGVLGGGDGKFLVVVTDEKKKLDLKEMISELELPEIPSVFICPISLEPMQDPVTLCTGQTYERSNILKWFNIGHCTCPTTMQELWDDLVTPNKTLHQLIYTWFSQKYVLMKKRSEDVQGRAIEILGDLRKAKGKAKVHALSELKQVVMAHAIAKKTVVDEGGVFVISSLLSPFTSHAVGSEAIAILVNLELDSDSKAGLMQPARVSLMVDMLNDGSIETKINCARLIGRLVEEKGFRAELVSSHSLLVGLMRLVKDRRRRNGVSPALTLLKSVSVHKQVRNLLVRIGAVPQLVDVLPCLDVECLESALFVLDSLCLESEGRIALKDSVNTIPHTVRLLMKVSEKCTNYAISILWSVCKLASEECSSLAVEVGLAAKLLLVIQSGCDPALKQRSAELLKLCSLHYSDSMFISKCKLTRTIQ
Put plainly: co-IP.

In assay [6] the target is T4, MYC-tagged PUB30 (PUB30-MYC), wild type (Arabidopsis thaliana) (UniProt Q058P4).
T4 sequence: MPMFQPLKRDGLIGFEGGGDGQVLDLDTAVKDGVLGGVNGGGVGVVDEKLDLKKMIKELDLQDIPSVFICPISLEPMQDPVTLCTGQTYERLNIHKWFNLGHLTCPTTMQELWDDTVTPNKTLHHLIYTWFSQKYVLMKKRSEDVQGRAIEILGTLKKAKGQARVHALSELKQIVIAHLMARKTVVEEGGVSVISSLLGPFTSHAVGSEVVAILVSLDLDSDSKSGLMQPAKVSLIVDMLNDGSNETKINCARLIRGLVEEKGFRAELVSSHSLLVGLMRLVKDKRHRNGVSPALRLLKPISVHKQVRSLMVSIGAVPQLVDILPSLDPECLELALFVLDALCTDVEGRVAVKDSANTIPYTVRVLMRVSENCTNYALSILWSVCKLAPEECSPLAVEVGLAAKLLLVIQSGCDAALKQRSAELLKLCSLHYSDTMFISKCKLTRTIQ
Put plainly: co-IP.

Assay [7] concerns the target T5, MYC-tagged PUB31 (PUB31-MYC), wild type (Arabidopsis thaliana) (UniProt Q9FHN9).
T5 sequence: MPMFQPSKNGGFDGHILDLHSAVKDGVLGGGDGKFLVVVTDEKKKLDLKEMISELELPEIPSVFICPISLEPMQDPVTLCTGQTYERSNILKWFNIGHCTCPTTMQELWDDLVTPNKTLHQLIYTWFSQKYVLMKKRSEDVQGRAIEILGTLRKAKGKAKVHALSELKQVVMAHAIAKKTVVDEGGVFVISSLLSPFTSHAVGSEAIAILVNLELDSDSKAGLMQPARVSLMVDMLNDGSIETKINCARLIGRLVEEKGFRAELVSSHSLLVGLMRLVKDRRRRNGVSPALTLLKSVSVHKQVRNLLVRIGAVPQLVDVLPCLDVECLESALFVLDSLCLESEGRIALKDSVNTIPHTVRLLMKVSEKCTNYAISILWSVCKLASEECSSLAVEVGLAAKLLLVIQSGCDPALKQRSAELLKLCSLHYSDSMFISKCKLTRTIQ
Put plainly: co-IP.

B1: PUB31, two-hybrid fusion used against BSK1/2 and YODA (enzyme, UniProt Q9FHN9 1-444)
chain: MPMFQPSKNGGFDGHILDLHSAVKDGVLGGGDGKFLVVVTDEKKKLDLKEMISELELPEIPSVFICPISLEPMQDPVTLCTGQTYERSNILKWFNIGHCTCPTTMQELWDDLVTPNKTLHQLIYTWFSQKYVLMKKRSEDVQGRAIEILGTLRKAKGKAKVHALSELKQVVMAHAIAKKTVVDEGGVFVISSLLSPFTSHAVGSEAIAILVNLELDSDSKAGLMQPARVSLMVDMLNDGSIETKINCARLIGRLVEEKGFRAELVSSHSLLVGLMRLVKDRRRRNGVSPALTLLKSVSVHKQVRNLLVRIGAVPQLVDVLPCLDVECLESALFVLDSLCLESEGRIALKDSVNTIPHTVRLLMKVSEKCTNYAISILWSVCKLASEECSSLAVEVGLAAKLLLVIQSGCDPALKQRSAELLKLCSLHYSDSMFISKCKLTRTIQ
Regarding B1, the binding result in assay [1], in assay [2] and in assay [3] was “no binding” throughout.

B2: PUB30, two-hybrid fusion used against BSK1/2 and YODA (enzyme, UniProt Q058P4 1-448)
chain: MPMFQPLKRDGLIGFEGGGDGQVLDLDTAVKDGVLGGVNGGGVGVVDEKLDLKKMIKELDLQDIPSVFICPISLEPMQDPVTLCTGQTYERLNIHKWFNLGHLTCPTTMQELWDDTVTPNKTLHHLIYTWFSQKYVLMKKRSEDVQGRAIEILGTLKKAKGQARVHALSELKQIVIAHLMARKTVVEEGGVSVISSLLGPFTSHAVGSEVVAILVSLDLDSDSKSGLMQPAKVSLIVDMLNDGSNETKINCARLIRGLVEEKGFRAELVSSHSLLVGLMRLVKDKRHRNGVSPALRLLKPISVHKQVRSLMVSIGAVPQLVDILPSLDPECLELALFVLDALCTDVEGRVAVKDSANTIPYTVRVLMRVSENCTNYALSILWSVCKLAPEECSPLAVEVGLAAKLLLVIQSGCDAALKQRSAELLKLCSLHYSDTMFISKCKLTRTIQ
As to B2, the binding result in assay [1], in assay [2] and in assay [3] was “no binding” throughout.

B3: HA-tagged ERECTA (ERECTA-HA) (receptor, UniProt Q42371 25-976)
chain: EEGATLLEIKKSFKDVNNVLYDWTTSPSSDYCVWRGVSCENVTFNVVALNLSDLNLDGEISPAIGDLKSLLSIDLRGNRLSGQIPDEIGDCSSLQNLDLSFNELSGDIPFSISKLKQLEQLILKNNQLIGPIPSTLSQIPNLKILDLAQNKLSGEIPRLIYWNEVLQYLGLRGNNLVGNISPDLCQLTGLWYFDVRNNSLTGSIPETIGNCTAFQVLDLSYNQLTGEIPFDIGFLQVATLSLQGNQLSGKIPSVIGLMQALAVLDLSGNLLSGSIPPILGNLTFTEKLYLHSNKLTGSIPPELGNMSKLHYLELNDNHLTGHIPPELGKLTDLFDLNVANNDLEGPIPDHLSSCTNLNSLNVHGNKFSGTIPRAFQKLESMTYLNLSSNNIKGPIPVELSRIGNLDTLDLSNNKINGIIPSSLGDLEHLLKMNLSRNHITGVVPGDFGNLRSIMEIDLSNNDISGPIPEELNQLQNIILLRLENNNLTGNVGSLANCLSLTVLNVSHNNLVGDIPKNNNFSRFSPDSFIGNPGLCGSWLNSPCHDSRRTVRVSISRAAILGIAIGGLVILLMVLIAACRPHNPPPFLDGSLDKPVTYSTPKLVILHMNMALHVYEDIMRMTENLSEKYIIGHGASSTVYKCVLKNCKPVAIKRLYSHNPQSMKQFETELEMLSSIKHRNLVSLQAYSLSHLGSLLFYDYLENGSLWDLLHGPTKKKTLDWDTRLKIAYGAAQGLAYLHHDCSPRIIHRDVKSSNILLDKDLEARLTDFGIAKSLCVSKSHTSTYVMGTIGYIDPEYARTSRLTEKSDVYSYGIVLLELLTRRKAVDDESNLHHLIMSKTGNNEVMEMADPDITSTCKDLGVVKKVFQLALLCTKRQPNDRPTMHQVTRVLGSFMLSEQPPAATDTSATLAGSCYVDEYANLKTPHSVNCSSMSASDAQLFLRFGQVISQNSE
In the case of B3, the binding result in assay [4], in assay [5], in assay [6] and in assay [7] was “binds” throughout.
